Experimental data published in PubChem BioAssay AID445 (National Center for Advancing Translational Sciences (NCATS), 2006).
This is one part of the list. The main result of the screen is listed elsewhere. These columns were measured beside it and carry no call. Compounds called inactive in the main read-out are mostly missing here. The note in brackets gives the kind of curve behind each potency; many fits are weak.

Assay: IkB Signaling
Conditions: ABC-DLBCL IkBa-CBG/CBR dual luciferase ratio (green luciferase fused to IkBa over red control in OCI-Ly3 lymphoma cells), 4 h
Method in brief: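 Luminescence ratio of IκBα-fused green versus native red beetle luciferase in OCI-Ly3 cells, 4 h post-doxycycline with compound; red signal alone, scaled from basal (0%) to zero light (-100%), flagged nonspecific or cytotoxic effects.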

[1] = measured here: control luc red channel unless noted
[2] = measured here: IkB-luc green channel
[3] = measured here: control luc red channel

Compound: CCOC(=O)c1ccc(N2C(=O)c3n[nH]c(-c4cccs4)c3C2c2cccc(F)c2)cc1 (stereo not drawn)
- AC50 [1]: 20 µM [falling, partial curve]

Compound: O=C(Cn1c(=O)n(Cc2nc(-c3ccccc3)no2)c(=O)c2cc3c(cc21)OCO3)Nc1ccc(Cl)cc1
- AC50 [1]: 6.31 µM [falling, full curve]

Compound: Cc1ccc(C)c(N2CCN(c3ccc(NC(=O)c4cccs4)cc3C(=O)O)CC2)c1
- AC50 [1]: 0.01 µM [rising, full curve]

Compound: Cc1nc(N2CCN(Cc3ccc4c(c3)OCO4)CC2)c2oc3ccccc3c2n1
- AC50 [1]: 15.8 µM [falling, partial curve]

Compound: Cc1cc(C)cc(NS(=O)(=O)c2ccc3c(c2)NC(=O)C(C)S3)c1 (stereo not drawn)
- AC50 [1]: 10 µM [falling, partial curve]

Compound: CCn1c(C(=O)N2CCC(C(=O)NCCc3ccc(OC)cc3OC)CC2)cc2sccc21
- AC50 [1]: 25.1 µM [falling, single point]

Compound: CCOC(=O)c1c(C)oc2nc(C)nc(Nc3ccc(CC)cc3)c12
- AC50 [1]: 0.501 µM [rising, full curve, poor fit]

Compound: COc1cccc2c1Oc1ncccc1N(C(=O)Nc1ccc(F)c(Cl)c1)C2
- AC50 [1]: 0.316 µM [rising, partial curve]

Compound: Cc1ccc(C)c(CN2C(=O)c3ccccc3S(=O)c3ccc(C(=O)NCc4ccccc4)cc32)c1 (stereo not drawn)
- AC50 [1]: 5.01 µM [falling, partial curve]

Compound: COc1ccccc1Cc1nc2ccccc2[nH]c1=O
- AC50 [1]: 3.16 µM [rising, partial curve, poor fit]

Compound: O=C(CSc1ncc(-c2ccc(F)cc2)n1Cc1ccco1)Nc1ccc2c(c1)OCO2
- AC50 [2]: 39.8 µM [falling, single point]
- AC50 [3]: 0.126 µM [falling, full curve]

Compound: CN(C)S(=O)(=O)c1ccc(C(=O)N2CC(=O)Nc3ccc(Br)cc3C2c2ccc(F)cc2)cc1 (stereo not drawn)
- AC50 [1]: 12.6 µM [falling, partial curve]

Compound: CCOc1cc(CNc2ccc(O)cc2)ccc1OCc1ccc(Cl)cc1
- AC50 [1]: 20 µM [falling, partial curve]

Compound: CCOc1ccc(CC(=O)NCCc2sc3nc(-c4ccc(OC)cc4)nn3c2C)cc1
- AC50 [1]: 15.8 µM [falling, partial curve]

Compound: CCN1CCN(c2c(S(=O)(=O)c3ccc(C)c(C)c3)cnc3cc(OC)c(OC)cc23)CC1
- AC50 [1]: 39.8 µM [falling, single point]

Compound: CCN(CC)S(=O)(=O)c1nnc(NC(=O)COc2ccc(Cl)cc2)s1
- AC50 [1]: 31.6 µM [falling, single point]

Compound: Cc1ccc(C)c(N2C(=O)N(Cc3cc(=O)n4ccccc4n3)c3ccccc3S2(=O)=O)c1
- AC50 [1]: 10 µM [falling, partial curve]

Compound: CCc1cccc(NC(=O)Nc2csc3c2CCCC3)c1
- AC50 [1]: 31.6 µM [rising, partial curve, poor fit]

Compound: CCn1c(SCC(=O)Nc2nccs2)nnc1-c1ccc(S(=O)(=O)N2CCCCC2)cc1
- AC50 [1]: 25.1 µM [falling, partial curve]

Compound: Cc1ccc(CNC(=O)c2ccc3c(c2)nc(C)n3-c2cc(C)cc(C)c2)cc1
- AC50 [1]: 39.8 µM [falling, single point]

Compound: COc1ccc(-n2nnnc2SCC(=O)c2ccc(O)c(O)c2)cc1
- AC50 [1]: 15.8 µM [falling, partial curve]

Compound: COc1cc(C)ccc1OCCSc1nc2ccc(NC(=O)c3ccc(F)cc3)cc2s1
- AC50 [1]: 15.8 µM [falling, partial curve]

Compound: CCCCOc1ccc(C(=O)Nc2ccc(-c3nc4ccccc4s3)cc2C)cc1
- AC50 [1]: 2.51 µM [rising, full curve]

Compound: COc1cc(OC)cc(C(=O)Nc2ccc3nc(N4CCCCC4)cc(C)c3c2)c1
- AC50 [1]: 7.94 µM [falling, full curve]

Compound: COc1ccc(Cl)cc1NC(=O)CN(C(=O)c1ccco1)C1CCCCC1
- AC50 [1]: 15.8 µM [falling, partial curve]

Compound: CC(C)Cn1c(=O)c2ccccc2n2c(CCC(=O)N3CCN(c4ccccc4F)CC3)nnc12
- AC50 [1]: 25.1 µM [falling, partial curve]

Compound: Cc1ccc2nc(-c3ccc(O)cc3)c(Nc3ccc4c(c3)OCCO4)n2c1
- AC50 [1]: 10 µM [falling, partial curve]

Compound: O=C(NCc1ccccc1Cl)C(=O)NCC(c1cccs1)S(=O)(=O)c1cccs1 (stereo not drawn)
- AC50 [1]: 15.8 µM [falling, partial curve]

Compound: COc1ccccc1N1CCN(C(=O)c2cn(-c3ccccc3)nc2-c2cccnc2)CC1
- AC50 [1]: 15.8 µM [falling, partial curve]

Compound: Cc1cc(C)n(CCc2nc3c4ccccc4nc(N4CCN(c5ccccc5F)CC4)n3n2)n1
- AC50 [1]: 1 µM [falling, partial curve]

Compound: Cc1ccc(NC(=O)/C(C#N)=C/c2ccc(C)o2)cc1
- AC50 [1]: 12.6 µM [falling, partial curve]

Compound: CC(C)CCNC(=O)c1ccc2c(c1)NC(=O)C(CS(=O)(=O)Cc1cccc(Br)c1)N2 (stereo not drawn)
- AC50 [1]: 15.8 µM [falling, partial curve]

Compound: COc1ccc(-c2cc(C(F)F)nc(-n3nc(C)cc3C)n2)cc1
- AC50 [1]: 31.6 µM [falling, single point]

Compound: CCOC(=O)C1CCC(CN(Cc2ccc(Cl)cc2)S(=O)(=O)c2ccc(Br)cc2)CC1 (stereo not drawn)
- AC50 [1]: 25.1 µM [falling, single point]

Compound: COc1ccc(-c2onc(C)c2C)cc1S(=O)(=O)N(C)Cc1ccco1
- AC50 [1]: 39.8 µM [falling, single point]

Compound: CCS(=O)(=O)N1CCc2cc(C(=O)NCCc3ccccc3)ccc21
- AC50 [1]: 0.0501 µM [falling, full curve]

Compound: COc1ccc(NC(=O)c2sc3nc(C)c(C(=O)Nc4ccc(C)cc4C)c(-c4ccc(C)o4)c3c2N)cc1
- AC50 [1]: 3.98 µM [falling, partial curve]

Compound: COc1cccc(C(=O)Nc2cc(C)c3c(=O)oc4ccccc4c3n2)c1
- AC50 [1]: 1.58 µM [rising, full curve]

Compound: Cc1ccc(Nc2nc(C)cc(C)n2)c(C(=O)O)c1
- AC50 [1]: 0.794 µM [rising, full curve]

Compound: CCc1ccc(NC(=O)CN2C(=O)C3(SCC(=O)N3c3ccccc3)c3ccccc32)cc1 (stereo not drawn)
- AC50 [1]: 12.6 µM [falling, partial curve]

Compound: CNc1ccc(O)cc1
- AC50 [2]: 7.94 µM [rising, partial curve, poor fit]
- AC50 [3]: 12.6 µM [falling, partial curve]

Compound: Cc1ccc(Cl)cc1NC(=O)CSC1=Nc2ccccc2C2=NC(Cc3ccccc3)C(=O)N12 (stereo not drawn)
- AC50 [1]: 39.8 µM [falling, partial curve]

Compound: COc1ccc(C(c2sc3nc(C)nn3c2O)N2CC(C)OC(C)C2)cc1OC (stereo not drawn)
- AC50 [1]: 0.398 µM [falling, full curve]

Compound: O=C(CCSc1nc(-c2ccco2)cc(C(F)(F)F)n1)N1CCN(c2ccccc2)CC1
- AC50 [1]: 12.6 µM [falling, partial curve]

Compound: CCCCN(CCCC)CC(O)Cn1cc(/C=C/C(=O)c2ccccc2)c2ccccc21 (stereo not drawn)
- AC50 [1]: 10 µM [falling, partial curve]

Compound: COc1cccc(-c2nc(CSCC(=O)NCCc3ccc(Cl)cc3)c(C)o2)c1
- AC50 [1]: 12.6 µM [falling, partial curve]

Compound: O=C(Nc1ccc2c(c1)OCO2)C1Cc2ccccc2CN1S(=O)(=O)c1cccs1 (stereo not drawn)
- AC50 [1]: 15.8 µM [falling, partial curve]

Compound: C=CCSc1nnc(-c2cc(Br)ccc2N)c(=O)[nH]1
- AC50 [1]: 12.6 µM [falling, partial curve]

Compound: CCOC(=O)c1cc(-c2ccccc2)n(CC(=O)N(C)c2ccc(OC)cc2)c1C
- AC50 [1]: 31.6 µM [falling, partial curve]

Compound: CCN(CCCNC(=O)c1cc2cc3ccc(C)cc3nc2s1)c1ccccc1
- AC50 [1]: 15.8 µM [falling, partial curve]

Compound: CCOC(=O)c1c(NC(=O)CSc2nnc(-c3cccnc3)n2Cc2ccco2)sc(C)c1C
- AC50 [1]: 31.6 µM [falling, partial curve]

Compound: CCOC(=O)CCNC(=O)Nc1ccc2nc(C)n(Cc3ccccc3Cl)c(=O)c2c1
- AC50 [1]: 25.1 µM [falling, partial curve]

Compound: Cc1ccc(NC(=O)c2oc3ccc(S(=O)(=O)N(C)C4CCCCC4)cc3c2C)cc1Cl
- AC50 [1]: 12.6 µM [falling, partial curve]

Compound: O=S(=O)(c1cccc(F)c1)N1CCC(c2nc3ccccc3s2)CC1
- AC50 [1]: 0.2 µM [rising, full curve]

Compound: COc1ccc(S(=O)(=O)N(CCc2ccccc2)CC(=O)Nc2cccc(OC)c2)cc1
- AC50 [1]: 12.6 µM [falling, partial curve]

Compound: CCOc1ccc2nc(N3CCC(C(=O)N4CCN(C(=O)c5ccco5)CC4)CC3)sc2c1
- AC50 [1]: 15.8 µM [falling, partial curve]

Compound: CCOC(=O)c1cccc(NC(=O)C2CCN(S(=O)(=O)c3ccc4c(c3)oc(=O)n4C)CC2)c1
- AC50 [1]: 15.8 µM [falling, partial curve]

Compound: CC(=O)OCC(=O)[C@@]1(O)[C@H](C)C[C@@H]2[C@H]3CCC4=CC(=O)C=C[C@]4(C)[C@]3(F)[C@@H](O)C[C@@]21C
- AC50 [1]: 5.01 nM [rising, full curve] [measured here: IkB-luc green channel]

Compound: COc1ccccc1N1CCN(c2ncnc3c2cnn3C)CC1
- AC50 [1]: 0.0126 µM [falling, full curve, poor fit]

Compound: CCOc1ccc(C2c3cc(OCC)c(OCC)cc3CC(=O)N2c2ccc(C(=O)O)cc2)cc1OCC (stereo not drawn)
- AC50 [1]: 20 µM [falling, partial curve]

Compound: COc1ccc(N=[N+]([O-])c2ccc(OC)cc2)cc1
- AC50 [1]: 5.01 µM [falling, full curve, poor fit]
